Experimental data: the supplement of paper PMC10331698
± gives the standard deviation of the averaged measurements. Most values lie at the level of the controls, where differences are scatter.

Tests used:
Experiment in all cases: level (log10 ratio to DMSO vehicle control); higher = higher biomarker level / cell amount than vehicle control
[1] = compound: C=C(C)C(=O)OCC(F)(F)C(F)(F)C(F)(F)C(F)(F)C(F)(F)C(F)(F)C(F)(F)F; conditions: in DMSO
Description: (§1)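 BioMAP Diversity Plus panel of 12 human primary cell co-culture systems (3C, 4H, LPS, SAg, BT, BF4T, BE3C, CASM3C, HDF3CGF, KF3CT, MyoF, Mphg). Compounds were added 1 h before stimulation and left for 24 h (MyoF 48 h; BT 72 h for soluble read-outs or 6 d for IgG). Biomarkers were read by ELISA, cytotoxicity by SRB, PBMC viability and proliferation by Alamar Blue. Each well value was divided by the mean of 8 DMSO control wells on the same plate and log10 transformed; duplicate blinded samples were tested at 4 concentrations.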

[2] = compound: C=CC(=O)OCC(F)(F)C(F)(F)C(F)(F)C(F)(F)C(F)(F)C(F)(F)C(F)(F)F [1H,1H-Perfluorooctyl acrylate]; conditions: 2200 nM; in DMSO
Description: as §1

[3] = compound: C=CC(F)(F)C(F)(F)C(F)(F)C(F)(F)C(F)(F)C(F)(F)C(F)(F)C(F)(F)C=C [1,8-Divinylperfluorooctane]; conditions: in DMSO
Description: as §1

[4] = compound: COC(=O)C(F)(F)C(F)(F)OC(F)(C(F)(F)F)C(F)(F)OC(F)=C(F)F [Methyl perfluoro(3-(1-ethenyloxypropan-2-yloxy)propanoate)]; conditions: in DMSO
Description: as §1

[5] = compound: CO[Si](C)(CCC(F)(F)C(F)(F)C(F)(F)C(F)(F)C(F)(F)C(F)(F)F)OC [Dimethoxymethyl((perfluorohexyl)ethyl)silane]; conditions: in DMSO
Description: as §1

[6] = compound: FC(F)(F)C(F)(F)C(F)(F)CC1CO1 [1H,1H-Heptafluorobutyl epoxide]; conditions: 2200 nM; in DMSO
Description: as §1

Heptafluorobutyl iodide = compound: FC(F)(F)C(F)(F)C(F)(F)CI [Heptafluorobutyl iodide]; conditions: 2200 nM; in DMSO
Description: as §1

[7] = compound: NC(=O)C(F)(F)C(F)(F)C(F)(F)C(F)F; conditions: in DMSO
Description: as §1

Pentafluoropropionamide = compound: NC(=O)C(F)(F)C(F)(F)F [Pentafluoropropionamide]; conditions: 2200 nM; in DMSO
Description: as §1

[8] = compound: NS(=O)(=O)C(F)(F)C(F)(F)C(F)(F)C(F)(F)C(F)(F)C(F)(F)C(F)(F)C(F)(F)F [Perfluorooctanesulfonamide]; conditions: in DMSO
Description: as §1

[9] = compound: O=C(O)C(F)(F)C(F)(F)C(F)F [4H-Perfluorobutanoic acid]; conditions: in DMSO
Description: as §1

[10] = compound: O=P(O)(O)CCC(F)(F)C(F)(F)C(F)(F)C(F)(F)C(F)(F)C(F)(F)F [2-(Perfluorohexyl)ethylphosphonic acid]; conditions: 2200 nM; in DMSO
Description: as §1

[11] = compound: O=S(=O)(F)C(F)(F)C(F)(F)C(F)(F)C(F)(F)C(F)(F)C(F)(F)C(F)(F)C(F)(F)F [Perfluorooctanesulfonyl fluoride]; conditions: 2200 nM; in DMSO
Description: as §1

[12] = compound: O=S(=O)(O)C(F)(F)C(F)(F)C(F)(F)C(F)(F)C(F)(F)C(F)(F)C(F)(F)C(F)(F)F [Perfluorooctanesulfonic acid]; conditions: 2200 nM; in DMSO
Description: as §1

[13] = compound: O=S(=O)(O)C(F)(F)C(F)(F)C(F)(F)C(F)(F)C(F)(F)C(F)(F)C(F)(F)C(F)(F)F [Potassium perfluorooctanesulfonate]; conditions: 2200 nM; in DMSO
Description: as §1

[14] = compound: O=S(=O)(OCC(F)(F)F)C(F)(F)C(F)(F)C(F)(F)C(F)(F)F [2,2,2-Trifluoroethyl perfluorobutanesulfonate]; conditions: 2200 nM; in DMSO
Description: as §1

[15] = compound: OCC(F)(F)C(F)(F)C(F)(F)C(F)(F)C(F)(F)C(F)F [1H,1H,7H-Dodecafluoro-1-heptanol]; conditions: 2200 nM; in DMSO
Description: as §1

[16] = compound: OCCCCC(F)(F)C(F)(F)C(F)(F)C(F)(F)F [4:4 Fluorotelomer alcohol]; conditions: 2200 nM; in DMSO
Description: as §1

| Test System | level (log10) ([1]; 740 nM) | level (log10) ([1]; 2200 nM) | level (log10) [2] | level (log10) ([3]; 740 nM) | level (log10) ([3]; 2200 nM) | level (log10) ([4]; 740 nM) | level (log10) ([4]; 2200 nM) | level (log10) ([5]; 740 nM) | level (log10) ([5]; 2200 nM) | level (log10) [6] | level (log10) (Heptafluorobutyl iodide) | level (log10) ([7]; 2200 nM) | level (log10) ([7]; 6700 nM) | level (log10) ([7]; 20000 nM) | level (log10) ([7]; 60000 nM) | level (log10) (Pentafluoropropionamide) | level (log10) ([8]; 2200 nM) | level (log10) ([8]; 6700 nM) | level (log10) ([8]; 20000 nM) | level (log10) ([9]; 2200 nM) | level (log10) ([9]; 6700 nM) | level (log10) ([9]; 20000 nM) | level (log10) ([9]; 60000 nM) | level (log10) [10] | level (log10) [11] | level (log10) [12] | level (log10) [13] | level (log10) [14] | level (log10) [15] | level (log10) [16] |
| --- | --- | --- | --- | --- | --- | --- | --- | --- | --- | --- | --- | --- | --- | --- | --- | --- | --- | --- | --- | --- | --- | --- | --- | --- | --- | --- | --- | --- | --- | --- |
| MyoF:PAI-I | 0.011 ± 0.0071 | 0.0005 ± 0.0078 | 0.0075 ± 0.023 | -0.003 ± 0.014 | -0.0005 ± 0.013 | 0.012 ± 0.0042 | 0.0015 ± 0.0078 | 0.003 ± 0.016 | -0.005 ± 0.021 | -0.0005 ± 0.016 | -0.006 ± 0.0028 | -0.0145 ± 0.035 | -0.0125 ± 0.013 | -0.0125 ± 0.0064 | 0.005 ± 0.018 | 0.002 ± 0.0028 | 0.0065 ± 0.011 | 0.0135 ± 0.019 | 0.006 ± 0.0071 | -0.013 ± 0.0071 | -0.0105 ± 0.019 | -0.023 ± 0.023 | -0.0095 ± 0.011 | -0.0135 ± 0.022 | 0.0015 ± 0.0064 | 0.008 ± 0.014 | 0.0085 ± 0.0035 | -0.0095 ± 0.011 | 0.0005 ± 0.0035 | 0.0045 ± 0.013 |
| MyoF:alpha-SM Actin | 0.005 | 0.0025 ± 0.018 | 0.0195 ± 0.016 | -0.0005 ± 0.005 | -0.001 ± 0.0028 | 0.0245 ± 0.022 | -0.0055 ± 0.026 | -0.0005 ± 0.015 | -0.0035 ± 0.025 | 0.013 ± 0.042 | -0.0135 ± 0.083 | 0.0165 ± 0.023 | -0.006 ± 0.0057 | 0.0025 ± 0.023 | -0.002 ± 0.033 | -0.0075 ± 0.016 | -0.0105 ± 0.061 | -0.0355 ± 0.037 | -0.63 ± 0.1 | -0.0265 ± 0.00071 | -0.0335 ± 0.047 | -0.0245 ± 0.049 | -0.026 ± 0.034 | 0.03 ± 0.079 | 0.0235 ± 0.015 | 0.017 ± 0.042 | -0.001 ± 0.035 | -0.008 ± 0.017 | -0.005 ± 0.0071 | 0.022 ± 0.018 |
| 3C:CD142/Tissue Factor | -0.0235 ± 0.028 | -0.027 ± 0.024 | 0.0125 ± 0.03 | -0.0345 ± 0.06 | -0.0375 ± 0.00071 | -0.008 ± 0.02 | -0.0145 ± 0.0064 | 0.003 ± 0.051 | 0.0215 ± 0.0021 | 0.0245 ± 0.015 | -0.0335 ± 0.026 | -0.0145 ± 0.053 | -0.0025 ± 0.066 | 0.006 ± 0.033 | 0.0115 ± 0.036 | -0.044 ± 0.051 | -0.021 ± 0.02 | -0.05 ± 0.017 | -0.033 ± 0.031 | -0.022 ± 0.031 | -0.004 ± 0.0014 | -0.021 ± 0.0099 | 0.0105 ± 0.005 | 0.032 ± 0.09 | -0.0135 ± 0.005 | -0.0075 ± 0.039 | -0.013 ± 0.047 | -0.003 | 0.0305 ± 0.0078 | 0.0065 ± 0.064 |
| 3C:CD106/VCAM-1 | -0.001 ± 0.0085 | -0.001 ± 0.016 | -0.0095 ± 0.042 | -0.005 ± 0.0028 | -0.0205 ± 0.016 | 0.001 ± 0.028 | -0.007 ± 0.018 | -0.0185 ± 0.011 | -0.0175 ± 0.021 | -0.0185 ± 0.016 | -0.0005 ± 0.0092 | -0.015 ± 0.034 | -0.001 ± 0.024 | 0.0135 ± 0.0021 | 0.007 ± 0.016 | 0.003 ± 0.0014 | 0 ± 0.0028 | -0.0005 ± 0.012 | 0.003 ± 0.013 | -0.0005 ± 0.011 | -0.0075 ± 0.04 | -0.0265 ± 0.005 | 0.006 ± 0.0028 | 0.004 ± 0.021 | 0.003 ± 0.014 | -0.0025 ± 0.018 | -0.0065 ± 0.0021 | -0.008 ± 0.011 | 0.001 ± 0.0014 | -0.0135 ± 0.023 |
| BF4T:CD106/VCAM-1 | 0.0115 ± 0.054 | -0.0155 ± 0.026 | -0.026 ± 0.038 | 0.0205 ± 0.015 | 0.0035 ± 0.005 | 0.0175 ± 0.047 | -0.0225 ± 0.016 | 0.0115 ± 0.035 | 0.0105 ± 0.013 | -0.002 ± 0.0071 | 0.014 ± 0.059 | 0.011 ± 0.064 | -0.015 ± 0.0028 | -0.014 ± 0.0042 | -0.003 ± 0.023 | -0.0095 ± 0.0092 | 0.0045 ± 0.0035 | -0.052 ± 0.0057 | -0.1125 ± 0.00071 | -0.025 ± 0.05 | 0.0145 ± 0.033 | -0.0365 ± 0.054 | 0.028 ± 0.078 | 0.029 ± 0.051 | -0.0055 ± 0.005 | -0.0155 ± 0.025 | 0.0315 ± 0.059 | -0.008 ± 0.016 | 0.027 ± 0.061 | 0.0495 ± 0.066 |
| lMphg:CD62E/E-Selectin | -0.0065 ± 0.0078 | -0.013 ± 0.018 | -0.0065 ± 0.025 | -0.006 ± 0.028 | -0.013 ± 0.021 | 0.027 ± 0.0014 | 0.0195 ± 0.0078 | -0.0105 ± 0.0064 | -0.018 ± 0.013 | 0.004 ± 0.031 | 0.0025 ± 0.047 | -0.0165 ± 0.043 | -0.011 ± 0.038 | -0.021 ± 0.076 | -0.037 ± 0.078 | -0.0075 ± 0.025 | -0.067 ± 0.076 | -0.118 ± 0.041 | -0.125 ± 0.0057 | 0.0115 ± 0.019 | -0.012 ± 0.0028 | 0.0025 ± 0.0092 | 0.0145 ± 0.0064 | 0.003 ± 0.041 | -0.0055 ± 0.012 | 0.0155 ± 0.074 | -0.025 ± 0.028 | 0.0175 ± 0.052 | -0.0245 ± 0.0092 | -0.0065 ± 0.057 |
| MyoF:SRB | 0.003 ± 0.0028 | -0.001 ± 0.0099 | 0.0095 ± 0.015 | 0.011 ± 0.0028 | 0.012 ± 0.0099 | 0.0015 ± 0.005 | -0.015 ± 0.011 | 0.0055 ± 0.012 | 0.012 ± 0.013 | -0.0125 ± 0.0078 | 0.0005 ± 0.0064 | -0.0045 ± 0.011 | -0.006 ± 0.0042 | -0.0175 ± 0.012 | -0.003 | 0.004 | -0.0005 ± 0.0021 | -0.0135 ± 0.0035 | -0.136 ± 0.0021 | 0.004 ± 0.0028 | 0.0005 ± 0.013 | 0.002 ± 0.0085 | 0.0055 ± 0.0021 | 0.005 ± 0.011 | -0.001 ± 0.0085 | 0.009 ± 0.021 | 0.0075 ± 0.029 | -0.0085 ± 0.019 | 0.005 ± 0.0042 | 0.0055 ± 0.005 |
